The assay deals with MCF7. Put plainly: Cytotoxicity against human MCF7 cells by MTT assay. Background: Tetrazolium assays rely on reduction of a dye to a coloured formazan, in cell work by metabolically active cells.

Each structure is given as a SMILES string. pIC50: −log10 of the molar value.

By pIC50 is commonly meant the negative decadic logarithm of the IC50, by convention in mol/L. Lower therefore signals a high IC50.

For the compound `CC(=O)O[C@H]1C(=O)[C@@]2(C)[C@H]([C@H](OC(=O)c3ccccc3)[C@]3(O)C[C@H](OC(=O)[C@H](O)[C@@H](NC(=O)c4ccccc4)c4ccccc4)C(C)=C1C3(C)C)[C@]1(OC(C)=O)CO[C@@H]1C[C@@H]2O` [PACLITAXEL], the pIC50 was 7.91.

Source of the values: ChEMBL document CHEMBL1141275, “Sesquiterpenoids from Bombax malabaricum” (J Nat Prod, 2007).
